## Primary screen of a compound library

From ChEMBL document CHEMBL3988442, “University of Dundee, Small-Polar-MMV Screening Library” (2021).

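Viability assay of Plasmodium falciparum sporozoites; the read-out is not stated. The concentration is filed as 10 mM, unlikely as a test dose, so the dose is not known. Higher reads as lower viability (inferred: compounds with an IC50 in retests scored well above the rest). Strong results were mostly tested again. Of about 34,000 compounds tested this way, about 280 (0.84%) reached 50% or more in at least one test.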

Each number is a percent effect as filed. The controls that fix the scale are not given in the record; negative values are as filed. This is an unselected part of the compounds tested. Two or more numbers in one place are separate tests of the same structure; such repeats can differ widely.

compound	effect
CCSc1cncc(N2CCC(NC(=O)C3CCCCC3)CC2)n1	9.778
CS(=O)(=O)N1CCC(c2nnc(CN3CCCC3)n2C2CC2)CC1	-9.112
[H][C@]12CCN(C(=O)COC)[C@@]1([H])CC[C@@H](COCc1csc(C)n1)O2	5.556
Cc1cnn(CC2CN(Cc3ccc(-n4cccn4)cc3)CCO2)c1 (centres unmarked)	2.267
O=C(NCc1csc(Br)c1)N1CCC(O)CC1	-2.949
CC1CN=C(N2CCN(C(=O)Nc3nc(-c4ccccc4)ns3)CC2)S1 (centres unmarked)	-4.152
O=C(O)C(F)(F)F.[H][C@@]12C[C@@H](c3nc(C)cs3)O[C@]1([H])CN(c1ncc(F)cn1)C2	-7.972
CN(CCc1ccccc1)Cc1cc(C(=O)N2CCCC2(C)C)no1	-13.38
O=C(O)C(F)(F)F.O=C(O)C(F)(F)F.[H][C@@]12C[C@@H](C(=O)NC)N(C)[C@]1([H])CN(Cc1ccco1)C2	6.035
CC(C)C(=O)NC1COC2(CCN(C(=O)c3cccnc3)CC2)C1 (centres unmarked)	26.35
c1cc(CN2CCCCC2)cc(NCc2cc[nH]n2)c1	-1.224
Cc1ncsc1C(=O)N1CCN(Cc2ccccc2)CC1C (centres unmarked)	-3.73
c1coc(CN2Cc3nccn3CC(Cn3cncn3)C2)c1 (centres unmarked)	-7.951
[H][C@]12CCN(c3cnccn3)C[C@]1(COC)CC[C@@H](N1CCOCC1)C2	0.1103
Cc1cc(CN(C)CC(c2cccs2)N2CCOCC2)on1 (centres unmarked)	6.114
Cc1nc(C)n(CC2CCCCN2Cc2nc(-c3ccoc3)no2)n1 (centres unmarked)	10.69 & 35.34 & 6.587
CCc1noc(C)c1C(=O)N1CCCN(Cc2csc(C)n2)CC1	-2.449
Cc1noc(C)c1CNCC1CCN(CC(O)c2ccccc2)CC1 (centres unmarked)	-10.5
COc1ccc(Cl)cc1NCC(=O)NCc1cccnc1OC	1.856
COCCCN1Cc2cccc(NC(=O)c3ccccc3C)c2C1	26.35 & 12.8 & 50
CCCC(=O)N1CCN(Cc2cc(-c3ccncc3)nn2C)CC1	2.421
CCCn1cc(C(=O)N2CCOC(c3nc(-c4cccs4)no3)C2)cn1 (centres unmarked)	42.39 & 34.52 & 29.79
Cc1cc(N2CCN(CCO)CC2)nc(-c2ccncc2)n1	-13.87
Cc1n[nH]c(C2CN(CCc3cccs3)CCO2)n1 (centres unmarked)	3.72 & -1.134 & 3.714
Cc1ccc(NC(=O)NC(C)c2nc[nH]n2)cc1 (centres unmarked)	-362.2 & 19.04 & 19.49
Cn1ccc(C2CCCCCN2C(=O)c2cccnc2)n1 (centres unmarked)	2.777
Cc1cccc(S(=O)(=O)N2CCCC3(CCCN3S(C)(=O)=O)C2)c1 (centres unmarked)	25.35
Cl.FC(F)(F)c1ccc(-c2cnc(C3CCCN3)cn2)cc1 (centres unmarked)	-3.71
CC(C)Oc1ccc(CNC(=O)CC(F)(F)F)cc1F	-12.14
COc1cc(C(=O)NS(=O)(=O)c2cccc(C#N)c2)cc(OC)c1Br	12.81
O=C(O)C(F)(F)F.[H][C@@]12CCN(c3ccc(C)nn3)[C@@]1([H])CCN2C(=O)Cc1cccs1	4.028
COc1ccc(CCNC(=O)C(C)Nc2cccc(C)c2C)cc1 (centres unmarked)	-1.434
[H][C@@]12C[C@@H](OCCOC)CN1CCN(C(=O)c1ccc(C)nc1)C2	12.45
Cc1noc(-c2ccc(Oc3cccc(CN4CCCC4)c3F)nc2)n1	-16.46
CN(C(=O)Cn1nc(-c2cccs2)ccc1=O)C1CCS(=O)(=O)C1 (centres unmarked)	7.103
Cc1cnn(C2CN(Cc3noc(-c4ccccc4)n3)C2)c1	-10.99
CCc1cc(O)nc(C2CCCN2C(=O)c2cccnc2)n1 (centres unmarked)	12.72
CO[C@@H]1CCN(Cc2cccs2)[C@H]1Cc1ccncc1	9.428
Cn1ccc(CN2CCCC23CCN(Cc2nccn2C)CC3)n1.O=C(O)C(F)(F)F.O=C(O)C(F)(F)F	7.005
[H][C@@]12C[C@H](C(=O)N3CCCCO3)CN(Cc3ccncc3)[C@]1([H])CCO2	-1.84
CCN(CC)S(=O)(=O)NCc1ccc(-c2ccc(C(N)=O)c(C)n2)cc1	11.94
CNc1nc(CNC(=O)Nc2cccc(C(C)OC)c2)cs1 (centres unmarked)	-4.736
COCc1nc(C(=O)NS(=O)(=O)c2ccc(C)cc2C)cs1	6.763
O=C(CCOCC(F)(F)F)N1CCCC1c1noc(C2CC2)n1 (centres unmarked)	9.433
[H][C@@]12CCN[C@]1([H])CN(S(=O)(=O)c1ccc(Cl)cc1)C2	-6.518 & -0.6569 & 12.15
CC(=O)N1CCC2(CCN(C(=O)c3ccc(C)c(C(F)(F)F)c3)CC2)C1	-20.92
O=C(O)C(F)(F)F.[H][C@@]12CCN(CC(=O)N(C)C)C(=O)[C@@]1([H])CN(C1CCOCC1)C2	-6.672
O=C(Nc1ccccc1OCCc1ccccn1)N1CCOCC(O)C1 (centres unmarked)	6.804
CSc1cccc(CN(C)C(=O)C2CC(=O)N(CCN(C)C)C2)c1 (centres unmarked)	8.584
CCOC(=O)[C@H]1[C@@H](O)C(=O)N(C)C12CCN(C(=O)C(CC)CC)CC2	0.6699
Cc1ccc(C)c(OC(C)C(=O)NCc2cccnc2)c1 (centres unmarked)	-12.43
COCc1noc(Cn2ncn3cccc3c2=O)n1	12.16
CC1CN(CC(=O)Nc2nccs2)CCN1Cc1nccn1C (centres unmarked)	-1.162
[H][C@]12C[C@@H](CN(C)C)N(C(C)=O)[C@@]1([H])CCN(C(=O)c1ccsc1)C2	4.291
COCCN1CCCC(c2nccnc2Nc2nc(C)cs2)C1 (centres unmarked)	0.1674
c1cnc(N2CCN(CCn3ccnc3-c3ccncc3)CC2)nc1	-4.462
CCCN1CCCC2(CCN(C(=O)CCCn3cncn3)C2)C1=O (centres unmarked)	-1.433
CN1CCCC(c2nccnc2-c2cccc(C(F)(F)F)c2)C1 (centres unmarked)	-3.657
O=C(N[C@@H]1CN(Cc2ccc(F)cc2)C[C@H]1O)c1cscn1	-3.013
Cn1cc(C2CCCN2C(=O)CCCOCc2ccccc2)cn1 (centres unmarked)	-4.523
CNC(=O)CN1C(=O)CN(C(=O)COC)CCC(OC)c2ccccc21 (centres unmarked)	-22.34
COc1ccc(-c2noc(CN3CCCC3Cn3cccn3)n2)cc1 (centres unmarked)	6.31
Cc1nc(Nc2ncccn2)cc(C2CCCN2CC(C)C)n1 (centres unmarked)	4.96
Cc1cc(CN(C)C(=O)NC2CCCN(c3ncccn3)C2)no1 (centres unmarked)	-5.111
O=C(O)C(F)(F)F.O=S(=O)(C1CC1)N1CCc2ncnc(N3CCCC3)c2CC1	1.688
[H][C@@]12CCCN[C@]1([H])CN(C(=O)NCC(C)C)C2	-3.422
Cn1nc(COCC2CC2)c2c1CCN(Cc1ccco1)C2.O=C(O)C(F)(F)F	1.54
COC(=O)CN1N=C(C(=O)N2CCCC2)S(=O)(=O)c2ccccc21	-2.413 & -3.85
Cc1nc(C)n(CC2CCCCN2CC(=O)Nc2cc(C)on2)n1 (centres unmarked)	15.53
COc1ccc([C@@H]2CN(C(=O)c3cscn3)C[C@H]2C(=O)O)cc1	10.69
CN(C)c1ccccc1CN1CCC(N2CCCC2=O)CC1	19.69
Cn1cccc1-c1cc(C(=O)N2CCCCC2c2ccc(F)cc2)[nH]n1 (centres unmarked)	0.1103
Cc1cc(CN(Cc2cccs2)CC2CCCO2)no1 (centres unmarked)	-26.01
O=C(C1CCCO1)N1CCC(O)(Cn2ccc3ccncc32)CC1 (centres unmarked)	4.183
O=C(O)C(F)(F)F.[H][C@]12CCC(=O)N(c3cccnc3)[C@@]1([H])CCN2C(=O)c1cnc(C)cn1	5.295
CC(C)c1ccc(CCC(=O)N2CCOCC2c2ncon2)cc1 (centres unmarked)	3.169
Cc1nc(O)cc(C2CCN(Cc3ccc(F)c(F)c3)C2)n1.O=C(O)CC(O)(CC(=O)O)C(=O)O (centres unmarked)	-1.674
COc1ccccc1C(O)CNc1c(C#N)c(=O)n(C)c(=O)n1C (centres unmarked)	9.76
c1cnn(CC2CCCCN2c2ncnc3sccc23)c1 (centres unmarked)	-11.37
CCC(=O)N1CCC2(CC1)CC(CC(=O)N(C)C)c1ccc(F)cc12 (centres unmarked)	2.363

Repeated from the top, 4 entries:

- CCSc1cncc(N2CCC(NC(=O)C3CCCCC3)CC2)n1 | 9.778%
- CS(=O)(=O)N1CCC(c2nnc(CN3CCCC3)n2C2CC2)CC1 | -9.112%
- [H][C@]12CCN(C(=O)COC)[C@@]1([H])CC[C@@H](COCc1csc(C)n1)O2 | 5.556%
- Cc1cnn(CC2CN(Cc3ccc(-n4cccn4)cc3)CCO2)c1 (centres unmarked) | 2.267%